Results published in patent publication US9097721B2, “Compositions comprising engineered phosphothreonine affinity reagents, methods of making, and methods of use” (The Board of Trustees of the University of Illinois, priority 2012, dated 2015).
Some entries repeat one wording, which the source may state once for all of them.

tested on: anti-FHA scFv; assay: Phage ELISA with antibody fragment recognising only folded FHA1 domain; conditions: phage-displayed, normalized to Flag epitope

Row | Molecule | recognition by anti-FHA scFv (conformational epitope)
1 | WT: N-terminal FHA1 domain of S. cerevisiae Rad53 protein kinase, residues 1-170 (SEQ ID NO:7) (protein, listed as Saccharomyces cerevisiae) MENITQPTQQSTQATQRFLIEKFSQEQIGENIVCRVICTTGQIPIRDLSADISQVLKEKRSIKKVWTFGRNPACDYHLGNISRLSNKHFQILLGEDGNLLLNDISTNGTWLNGQKVEKNSNQLLSQGDEITVGVGVESDILSLVIFINDKFKQCLEQNKVDRIRSNLKNT | Neither the phage-displayed WT FHA1 domain nor the 3C-3S and 4C-4S variants were recognized
2 | 3C-3S: FHA1 domain variant with three cysteines mutated to serine (C34S, C38S, C154S) (protein, left off: a dimerising Fc or GST; large carriers; small tags and cut ends) MENITQPTQQSTQATQRFLIEKFSQEQIGENIVSRVISTTGQIPIRDLSADISQVLKEKRSIKKVWTFGRNPACDYHLGNISRLSNKHFQILLGEDGNLLLNDISTNGTWLNGQKVEKNSNQLLSQGDEITVGVGVESDILSLVIFINDKFKQSLEQNKVDRIRSNLKNT | Neither the phage-displayed WT FHA1 domain nor the 3C-3S and 4C-4S variants were recognized
3 | 4C-4S: FHA1 variant with all four cysteines mutated to serines (protein, left off: a dimerising Fc or GST; large carriers; small tags and cut ends, FHA1 variant with all four cysteines mutated to serines) MENITQPTQQSTQATQRFLIEKFSQEQIGENIVSRVISTTGQIPIRDLSADISQVLKEKRSIKKVWTFGRNPASDYHLGNISRLSNKHFQILLGEDGNLLLNDISTNGTWLNGQKVEKNSNQLLSQGDEITVGVGVESDILSLVIFINDKFKQSLEQNKVDRIRSNLKNT | Neither the phage-displayed WT FHA1 domain nor the 3C-3S and 4C-4S variants were recognized
